Laboratory results as given in publication PMC6927666.
No constants are given. Whether binding was seen depends on the method and setting. In cells and extracts the contact can be indirect. Some entries that bind do so weakly or less than the wild type.

Protein sequences, listed by entry. Tags and fused reporters are not part of them.
UniProt Q15796: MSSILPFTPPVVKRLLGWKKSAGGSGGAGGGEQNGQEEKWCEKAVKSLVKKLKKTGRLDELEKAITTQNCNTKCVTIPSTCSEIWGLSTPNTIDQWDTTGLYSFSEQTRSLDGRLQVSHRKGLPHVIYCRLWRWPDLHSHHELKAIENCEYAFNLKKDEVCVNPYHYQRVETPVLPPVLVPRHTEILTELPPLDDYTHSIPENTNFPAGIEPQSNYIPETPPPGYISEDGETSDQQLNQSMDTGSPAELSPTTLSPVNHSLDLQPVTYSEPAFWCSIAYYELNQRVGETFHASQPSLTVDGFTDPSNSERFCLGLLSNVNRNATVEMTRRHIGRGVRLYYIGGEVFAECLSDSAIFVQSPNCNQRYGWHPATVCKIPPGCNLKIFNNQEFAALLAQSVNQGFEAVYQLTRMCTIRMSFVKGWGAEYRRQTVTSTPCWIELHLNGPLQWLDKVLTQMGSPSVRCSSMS
UniProt Q15797: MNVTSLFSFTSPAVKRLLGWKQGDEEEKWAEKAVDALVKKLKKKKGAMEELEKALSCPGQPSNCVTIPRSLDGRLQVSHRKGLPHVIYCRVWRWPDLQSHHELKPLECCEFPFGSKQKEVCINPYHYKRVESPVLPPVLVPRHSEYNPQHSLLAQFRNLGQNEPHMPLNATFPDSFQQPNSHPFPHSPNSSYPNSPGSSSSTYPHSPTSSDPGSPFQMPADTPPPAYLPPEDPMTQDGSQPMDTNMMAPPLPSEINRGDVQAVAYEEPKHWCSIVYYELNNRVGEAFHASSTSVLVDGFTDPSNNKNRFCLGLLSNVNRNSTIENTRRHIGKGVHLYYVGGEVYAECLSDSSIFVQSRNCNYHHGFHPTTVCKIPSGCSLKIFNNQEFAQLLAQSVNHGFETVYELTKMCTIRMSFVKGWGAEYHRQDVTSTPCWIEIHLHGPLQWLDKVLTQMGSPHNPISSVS

Target: SMAD2 (human (endogenous in EAhy926)) (UniProt Q15796)
Experiment: proximity ligation; Duolink in situ PLA on monolayers of EAhy926 endothelial cell clones (BMPR2wt, BMPR2ΔE2, BMPR2KO) on glass coverslips, serum starved for 6 h, TGFβ (200 pM) for 15 min; endogenous proteins, pairs of specific antibodies

binding: binds
Substance: SMAD1 (from UniProt Q15797 1-465)
